Test results from the supplement of paper PMC10338343.
± gives the standard deviation. Only a part is listed here, and it is no random draw. Many entries were measured with a wide error.

Each sequence was assayed on MILI (PIWIL2) piRISC loaded with piRNA #2 (26 nt) (assay: pre-steady-state target cleavage rate (min^-1); MIWI and MILI are mouse PIWI proteins and EfPiwi is from a freshwater sponge; tags in brackets are library labels; higher = faster piRNA-guided slicing of the target). Details: guide: piRNA #2 5'p-UUAGGUAACCCAGUAGAUCCAGAGGA; auxiliary factor: 500 nM mouse GTSF1.
Method: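 Cleave-'n-Seq: a library of target RNAs (target site embedded in constant flanks, ACAGCATTCCGCGTTAGTGATATCCG... 5' flank; DNA-blocked outside the site) at 0.1 nM was incubated with 1 nM active mouse MILI or MIWI piRISC (synthetic 5'-monophosphorylated piRNA guide) with or without 500 nM mouse GTSF1 at 33 °C for 1 min to 16 h. Uncleaved targets were sequenced and normalised to non-target controls, and the pooled three trials were fitted to a burst-and-steady-state model to give the pre-steady-state cleavage rate (min^-1; k3 is constrained to at most 1e-4). Sequence is the target site only; target names encode pairing extent (gX:gY) and contiguous / 1-mismatch / 2-mismatch / bulge geometry. Fits with R² ≤ 0 are excluded.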

Sequence | pre-steady-state target cleavage rate
CUUAAGGAGACCAAUCUACUGGGUUACCUAA | 0.00112 ± 0.0082
CUUAAGGAGACGAUCUACUGCGUUACCUAA | 0.00232 ± 0.003
CUUAAGGAGUGGAUCUACUGCGUUACCUUA | 0.00273 ± 0.004
CUUAAGGAGUGGAUCUACUGGGUUACGAUA | 0.00222 ± 0.0054
CUUAUCCUCUGGAUCACUGGGUUACCUAA | 0.0129 ± 0.0061
CUUAAGGUCUGGAUGUACUCGGUUACCUAA | 0.000529 ± 0.028
CUUAAGGAGACCUUCUACUGAGUUACCUAA | 0.00119 ± 0.0074
CUUAUCCUCUGCAUCUACUCGGUUACCUAA | 0.00261 ± 0.0038
CUUAAGGAGACGAUCUACUGGGUUACACUAA | 0.000645 ± 0.013
CUUAAGGUCUGGAUCUACUGGUUACCUAA | 0.00368 ± 0.0042
CUUAAGGACUCGAUCUACUGCGUUACCUAA | 0.00118 ± 0.017
CUUAAGGAGAGGAUCUUCUGGGUUUCCUAA | 0.00163 ± 0.0052
CUUAAGGAGACCUAGUCACUGGGUUACCUAA | 0.000317 ± 0.024
CUUAAGGUCUGGAUCUACUGGGUUAGGUAA | 0.000589 ± 0.018
CUUAAGGAGACGAUCUACUGGGUCACCUAA | 0.00118 ± 0.0079
CUUAAGGAGACGAUCGACUGGGUUACCUAA | 0.00165 ± 0.0052
CUUAAGGAGACGAUCAAGUGGGUUACCUAA | 0.000352 ± 0.02
CUUAAGGAGACGAGCUACUGGGUUACCUAA | 0.00112 ± 0.0073
CUUAAGCUCUGGAUCUACUGCGUUACGUAA | 0.00207 ± 0.005
CUUAAGGAGAGGAUCUAGUGGGUUACCAAA | 0.000516 ± 0.017
CUUAUCCUCUGGUUCUACUGGGUUACGUAA | 0.634 ± 0.25
CUUAAGGAGACCUACUACUGGGGUUACCUAA | 0.000324 ± 0.024
CUUAAGGAGACCUUCUACUGGUGUUACCUAA | 0.00122 ± 0.0085
CUUAAGGUCUGCAUCUACUCGGUUACCUAA | 0.00103 ± 0.015

Sequence | pre-steady-state target cleavage rate
CUUAAGGAGACCUUCUUCUGGGUUACCUAA | 0.00129 ± 0.0069
CUUAAGGAGACGAUCUACUGGGUCUACCUAA | 0.00139 ± 0.0065
CUUAAGGAGAGAAUCUACUGGGUUACCUAA | 0.00325 ± 0.0044
CUUAAGGAGACGAUCUACUGGGUUACCGUAA | 0.0012 ± 0.011
CUUAUCCUCUGGUUCUACUGGGUUACCUUA | 1.12 ± 0.39
CUUAUCCUCUGGAUCUACUCGGUUACCAAA | 0.000883 ± 0.016
CUUAAGGAGACCAACUACUGGGUUAGCUAA | 0.00032 ± 0.033
CUUAAGGAGUGCAUCUACUGCGUUACCUAA | 0.000761 ± 0.018
CUUAAGGAGACCUACUACUGGGUUCACCUAA | 0.000253 ± 0.027
CUUAACCUCUGGAUCUACUCCGUUACCUAA | 0.00101 ± 0.011
CUUAAGGAGACGAUCUACUGGGUAACCUAA | 0.00173 ± 0.0074
CUUAUCCUCUGGAUCUACUGGGGUUACCUAA | 0.0435 ± 0.012
CUUAACCUCUGGAUCUUCUCGGUUACCUAA | 0.00184 ± 0.0055
CUUAAGGUCUGGAUCUACUGGGUUUACCUAA | 0.0618 ± 0.011
CUUAAGGAGACGAUCUUCUCGGUUACCUAA | 0.00112 ± 0.0055
CUUAAGCUGUGGAUCUACUGCGUUACCUAA | 0.00542 ± 0.0084
CUUAAGGAGACCAUCUACUCGGUUACCUAA | 0.00115 ± 0.004
CUUAAGGUCUGCAUCUACUGCGUUACCUAA | 0.00422 ± 0.0061
CUUAUCCUCUGGAUCUACUGGGUUCCUAA | 0.239 ± 0.11
CUUAAGGAGACCAUAUACUGGGUUACCUAA | 0.000474 ± 0.016
CUUAAGGAGACGAUGAUCUGGGUUACCUAA | 0.0001 ± 0.059
CUUAUCCUCUGGAUCUACUGCCAAUGGAUA [g11:g26:cont:t1A] | 0.000413 ± 0.014
CUUAAGGAGUGGAUCUACUGGUUUACCUAA | 0.00276 ± 0.0044
CUUAUCCUCUGGAUCUACUGCGAUACCUAA | 0.00248 ± 0.0039

An excerpt of these results, as labelled records.
CUUAUCCUCUGGAUCUACUGCCAAUGGAUA [g11:g26:cont:t1A]
  pre-steady-state target cleavage rate: 0.000413 ± 0.014
CUUAAGGAGUGGAUCUACUGGUUUACCUAA
  pre-steady-state target cleavage rate: 0.00276 ± 0.0044
CUUAUCCUCUGGAUCUACUGCGAUACCUAA
  pre-steady-state target cleavage rate: 0.00248 ± 0.0039

The results go on.

Sequence | pre-steady-state target cleavage rate
CUUAUCCACUGGAUCUACUCGGUUACCUAA | 0.000839 ± 0.019
CUUAAGGAGACGAUCUACUGGGGUACCUAA | 0.000733 ± 0.01
CUUAAGGAGUGGAUCUACUGGGUUAGCUAA | 0.00262 ± 0.0054
CUUAAGGAGAGCAUCUACUGGGAUACCUAA | 0.00141 ± 0.0076
CUUAAGGAGACCUACUACUCGGUUACCUUA | 0.000345 ± 0.019
CUUAAGGAGAGGAUCUACUGGGUUUCCUUA | 0.00198 ± 0.0045
CUUAAGGAGACCAUCUACUGGGUUACCCAA | 0.000644 ± 0.018
CUUAAGGAGACCUGCUACUGGGUUACCUAA | 0.000614 ± 0.014
CUUAAGGAGACCUACUACUGGGUUACCUA | 0.000287 ± 0.034
CUUAAGGAGACCUUCUAUUGGGUUACCUAA | 0.00155 ± 0.0071
CUUAAGGACAGGAUCUACUGGGUUAGCUAA | 0.000732 ± 0.023
CUUAAGGAGUGGAUGUACUGGGUUACCUUA | 0.0133 ± 0.015
CUUAAGGAGUGGAUCUACUGCGGUUACCUAA | 0.000451 ± 0.0094
CUUAAGGAGUGGAUCUACUGGGUUAACUAA | 0.000525 ± 0.024
CUUAAGGUCUGGAUCUACCUGGGUUACCUAA | 0.000787 ± 0.008
CUUAAGCUCUGGAUCUACUCGGUAACCUAA | 0.00031 ± 0.035
CUUAAGGACUGGAUCAACUGGGUUUCCUAA | 0.00436 ± 0.0066
CUUAAGCUCUGGAUGUAGUGGGUUACCUAA | 0.061 ± 0.011
CUUAAGGAGUGGAUCAUACUGGGUUACCUAA | 0.000183 ± 0.021
CUUAAGGAGACCAUCUACACCGUUACCUAA | 0.000388 ± 0.029
CUUAAGGAGACGAUCUACUGGGUUCACCUAA | 0.00216 ± 0.0051
CUUAAGCCCUGGAUCUACUGGGUUACCUAA | 0.202 ± 0.041
CUUAAGGAGACCUACAUCUGGGUUACCUAA | 0.000283 ± 0.026
CUUAAGGAGACGAUCUACAGGCUUACCUAA | 0.000295 ± 0.021
